Publication PMC11563578
No constants are given. Whether binding was seen depends on the method and setting. Some entries that bind do so weakly or less than the wild type. Each block holds one binder with its values, some of them ahead of it.

Biological target: T1, TATA box binding protein (TBP) (UniProt P13393)
T1 sequence: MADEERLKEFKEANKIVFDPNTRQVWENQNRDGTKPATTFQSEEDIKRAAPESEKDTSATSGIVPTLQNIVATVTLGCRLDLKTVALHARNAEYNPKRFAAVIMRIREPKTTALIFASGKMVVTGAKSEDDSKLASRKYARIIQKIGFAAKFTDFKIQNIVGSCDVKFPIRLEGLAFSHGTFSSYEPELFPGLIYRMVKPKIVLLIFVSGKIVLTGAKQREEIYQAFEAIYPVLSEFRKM
Test: cross-linking; 20 ug of each purified protein in 100 ul 20 mM HEPES-NaOH pH 7.9, 100 mM KOAc, 30 min at RT as TBP/TFIIA, TBP/TFIIB (C1q2) and TBP/TFIIA/TFIIB (C2q2); ~1 mM Q2linker for 2 hr; pooled, trypsin, SCX, MS (pLink2 and Nexus); both purified

- binding: binds
B1: TFIIA (TOA1/TOA2) (complex, UniProt P32773 1-286; P32774 1-122)
chain 1: MSNAEASRVYEIIVESVVNEVREDFENAGIDEQTLQDLKNIWQKKLTETKVTTFSWDNQFNEGNINGVQNDLNFNLATPGVNSSEFNIKEENTGNEGLILPNINSNNNIPHSGETNINTNTVEATNNSGATLNTNTSGNTNADVTSQPKIEVKPEIELTINNANITTVENIDDESEKKDDEEKEEDVEKTRKEKEQIEQVKLQAKKEKRSALLDTDEVGSELDDSDDDYLISEGEEDGPDENLMLCLYDKVTRTKARWKCSLKDGVVTINRNDYTFQKAQVEAEWV
chain 2: MAVPGYYELYRRSTIGNSLVDALDTLISDGRIEASLAMRVLETFDKVVAETLKDNTQSKLTVKGNLDTYGFCDDVWTFIVKNCQVTVEDSHRDASQNGSGDSQSVISVDKLRIVACNSKKSE

- binding: binds
B2: TFIIB (protein, UniProt P29055 1-345)
chain: MMTRESIDKRAGRRGPNLNIVLTCPECKVYPPKIVERFSEGDVVCALCGLVLSDKLVDTRSEWRTFSNDDHNGDDPSRVGEASNPLLDGNNLSTRIGKGETTDMRFTKELNKAQGKNVMDKKDNEVQAAFAKITMLCDAAELPKIVKDCAKEAYKLCHDEKTLKGKSMESIMAASILIGCRRAEVARTFKEIQSLIHVKTKEFGKTLNIMKNILRGKSEDGFLKIDTDNMSGAQNLTYIPRFCSHLGLPMQVTTSAEYTAKKCKEIKEIAGKSPITIAVVSIYLNILLFQIPITAAKVGQTLQVTEGTIKSGYKILYEHRDKLVDPQLIANGVVSLDNLPGVEKK
